Laboratory results reported in article PMC7031854.
No constants are given. Whether binding was seen depends on the method and setting. Some results given as binding are weak or reduced against the parent protein; the word gives no strength.

Protein sequences, listed by entry. Tags and fused reporters are not part of them. Lines headed by an entry give the natural chain unless they say otherwise; changes in a name come on top.
UniProt P49951: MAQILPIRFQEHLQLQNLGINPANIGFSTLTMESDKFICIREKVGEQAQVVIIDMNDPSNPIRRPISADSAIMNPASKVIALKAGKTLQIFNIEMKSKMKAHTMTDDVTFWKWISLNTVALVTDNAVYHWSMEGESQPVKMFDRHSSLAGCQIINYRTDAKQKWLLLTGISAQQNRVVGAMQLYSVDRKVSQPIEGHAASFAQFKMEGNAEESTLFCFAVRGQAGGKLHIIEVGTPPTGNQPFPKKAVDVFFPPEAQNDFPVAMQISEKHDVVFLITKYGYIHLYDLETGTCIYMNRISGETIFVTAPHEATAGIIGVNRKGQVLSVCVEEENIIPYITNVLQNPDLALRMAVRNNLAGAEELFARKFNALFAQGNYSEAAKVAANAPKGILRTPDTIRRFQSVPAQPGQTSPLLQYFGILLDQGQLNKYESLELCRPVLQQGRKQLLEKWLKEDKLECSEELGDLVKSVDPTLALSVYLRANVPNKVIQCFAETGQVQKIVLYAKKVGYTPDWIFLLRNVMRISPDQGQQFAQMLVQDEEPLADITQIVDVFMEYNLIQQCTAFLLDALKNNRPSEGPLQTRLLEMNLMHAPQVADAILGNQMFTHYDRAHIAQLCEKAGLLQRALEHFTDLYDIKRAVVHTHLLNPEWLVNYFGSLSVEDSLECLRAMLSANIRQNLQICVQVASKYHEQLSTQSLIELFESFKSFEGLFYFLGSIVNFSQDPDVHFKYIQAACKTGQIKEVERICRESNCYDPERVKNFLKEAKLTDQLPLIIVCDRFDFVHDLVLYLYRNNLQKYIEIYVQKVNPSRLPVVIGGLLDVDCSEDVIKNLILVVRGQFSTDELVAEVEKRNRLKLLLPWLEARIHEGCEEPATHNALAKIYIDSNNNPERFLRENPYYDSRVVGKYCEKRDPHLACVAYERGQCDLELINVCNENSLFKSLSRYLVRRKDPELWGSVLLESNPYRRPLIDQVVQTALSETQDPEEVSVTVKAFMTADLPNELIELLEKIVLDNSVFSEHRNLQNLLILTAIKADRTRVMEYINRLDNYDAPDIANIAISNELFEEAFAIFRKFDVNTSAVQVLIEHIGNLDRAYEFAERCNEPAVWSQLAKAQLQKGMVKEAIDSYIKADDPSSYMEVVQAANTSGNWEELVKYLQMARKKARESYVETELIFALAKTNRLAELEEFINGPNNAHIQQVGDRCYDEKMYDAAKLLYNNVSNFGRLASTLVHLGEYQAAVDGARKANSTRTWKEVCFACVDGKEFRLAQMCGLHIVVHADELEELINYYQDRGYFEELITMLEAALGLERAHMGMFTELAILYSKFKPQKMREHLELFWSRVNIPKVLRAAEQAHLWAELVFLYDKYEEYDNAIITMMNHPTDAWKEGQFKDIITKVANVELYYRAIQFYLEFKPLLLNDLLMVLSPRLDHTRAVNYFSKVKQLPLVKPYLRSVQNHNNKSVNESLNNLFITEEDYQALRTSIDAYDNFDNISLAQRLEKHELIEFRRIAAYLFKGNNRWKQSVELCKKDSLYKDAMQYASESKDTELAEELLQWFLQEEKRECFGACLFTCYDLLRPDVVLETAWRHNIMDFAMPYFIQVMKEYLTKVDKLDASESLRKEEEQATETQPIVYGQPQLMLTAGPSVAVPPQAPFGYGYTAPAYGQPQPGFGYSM
UniProt Q27974: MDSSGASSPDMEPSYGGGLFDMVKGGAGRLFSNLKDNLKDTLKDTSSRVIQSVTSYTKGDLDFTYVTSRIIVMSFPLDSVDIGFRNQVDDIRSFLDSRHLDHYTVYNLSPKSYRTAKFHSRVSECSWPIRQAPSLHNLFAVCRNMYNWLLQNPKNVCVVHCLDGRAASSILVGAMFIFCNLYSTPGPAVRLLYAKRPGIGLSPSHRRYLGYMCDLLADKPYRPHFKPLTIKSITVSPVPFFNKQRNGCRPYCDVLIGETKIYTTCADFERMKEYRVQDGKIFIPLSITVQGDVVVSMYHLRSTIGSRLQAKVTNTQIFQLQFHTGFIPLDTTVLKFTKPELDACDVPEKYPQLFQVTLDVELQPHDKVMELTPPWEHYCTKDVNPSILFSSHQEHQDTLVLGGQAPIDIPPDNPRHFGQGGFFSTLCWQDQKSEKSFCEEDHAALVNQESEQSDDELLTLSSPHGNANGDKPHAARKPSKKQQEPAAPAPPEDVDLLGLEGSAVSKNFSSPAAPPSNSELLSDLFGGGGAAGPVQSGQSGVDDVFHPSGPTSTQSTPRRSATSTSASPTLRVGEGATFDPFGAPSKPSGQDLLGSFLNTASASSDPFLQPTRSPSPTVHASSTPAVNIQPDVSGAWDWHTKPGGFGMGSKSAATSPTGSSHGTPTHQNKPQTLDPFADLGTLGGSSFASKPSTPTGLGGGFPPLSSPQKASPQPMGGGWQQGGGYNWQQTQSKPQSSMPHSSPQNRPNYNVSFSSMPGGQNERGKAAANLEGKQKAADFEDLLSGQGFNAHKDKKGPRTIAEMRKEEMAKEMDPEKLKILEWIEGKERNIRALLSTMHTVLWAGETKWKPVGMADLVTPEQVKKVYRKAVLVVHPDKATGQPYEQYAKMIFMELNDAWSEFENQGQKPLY

Biological target: clathrin cages assembled in vitro from recombinant bovine brain clathrin and auxilin (bovine | not stated) (UniProt P49951+Q27974)
Test: stopped-flow light scattering; clathrin cages (0.3 μM clathrin heavy chain) with 1 mM ATP and 0.45 μM auxilin in 20 mM imidazole pH 6.8, 10 mM (NH4)2SO4, 25 mM KCl, 2 mM MgAc2, mixed with an equal volume of 4 μM Hsc70; transient increase in scattering read as binding; both purified

binding: binds
Substance: His-tagged recombinant bovine Hsc70 (from UniProt P19120 1-650)
